Experimental findings from paper PMC6418087 are described below.

Protein sequences, listed by entry. Tags and fused reporters are not part of them. Residues count along the entry.
UniProt Q16665: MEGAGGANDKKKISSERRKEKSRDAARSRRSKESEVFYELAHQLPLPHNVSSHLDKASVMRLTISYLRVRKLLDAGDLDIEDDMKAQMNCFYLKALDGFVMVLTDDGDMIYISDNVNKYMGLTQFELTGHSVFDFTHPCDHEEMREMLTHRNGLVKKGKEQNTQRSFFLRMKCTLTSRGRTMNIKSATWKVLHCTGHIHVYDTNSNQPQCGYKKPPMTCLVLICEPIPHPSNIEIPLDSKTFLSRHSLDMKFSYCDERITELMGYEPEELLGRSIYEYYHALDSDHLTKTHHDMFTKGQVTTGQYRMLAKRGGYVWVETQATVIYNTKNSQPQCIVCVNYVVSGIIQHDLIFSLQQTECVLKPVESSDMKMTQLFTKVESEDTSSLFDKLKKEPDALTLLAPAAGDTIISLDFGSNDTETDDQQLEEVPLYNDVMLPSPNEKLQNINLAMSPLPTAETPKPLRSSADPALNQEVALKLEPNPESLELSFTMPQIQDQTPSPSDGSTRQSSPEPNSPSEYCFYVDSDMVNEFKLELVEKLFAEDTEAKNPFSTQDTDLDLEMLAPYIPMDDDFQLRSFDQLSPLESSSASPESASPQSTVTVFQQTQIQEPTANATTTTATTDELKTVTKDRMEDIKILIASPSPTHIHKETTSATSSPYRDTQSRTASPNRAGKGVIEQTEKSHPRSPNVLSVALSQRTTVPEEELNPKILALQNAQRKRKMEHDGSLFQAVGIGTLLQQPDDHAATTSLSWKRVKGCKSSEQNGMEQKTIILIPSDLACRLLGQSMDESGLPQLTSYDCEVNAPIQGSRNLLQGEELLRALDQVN
UniProt P35869, residues 11-848: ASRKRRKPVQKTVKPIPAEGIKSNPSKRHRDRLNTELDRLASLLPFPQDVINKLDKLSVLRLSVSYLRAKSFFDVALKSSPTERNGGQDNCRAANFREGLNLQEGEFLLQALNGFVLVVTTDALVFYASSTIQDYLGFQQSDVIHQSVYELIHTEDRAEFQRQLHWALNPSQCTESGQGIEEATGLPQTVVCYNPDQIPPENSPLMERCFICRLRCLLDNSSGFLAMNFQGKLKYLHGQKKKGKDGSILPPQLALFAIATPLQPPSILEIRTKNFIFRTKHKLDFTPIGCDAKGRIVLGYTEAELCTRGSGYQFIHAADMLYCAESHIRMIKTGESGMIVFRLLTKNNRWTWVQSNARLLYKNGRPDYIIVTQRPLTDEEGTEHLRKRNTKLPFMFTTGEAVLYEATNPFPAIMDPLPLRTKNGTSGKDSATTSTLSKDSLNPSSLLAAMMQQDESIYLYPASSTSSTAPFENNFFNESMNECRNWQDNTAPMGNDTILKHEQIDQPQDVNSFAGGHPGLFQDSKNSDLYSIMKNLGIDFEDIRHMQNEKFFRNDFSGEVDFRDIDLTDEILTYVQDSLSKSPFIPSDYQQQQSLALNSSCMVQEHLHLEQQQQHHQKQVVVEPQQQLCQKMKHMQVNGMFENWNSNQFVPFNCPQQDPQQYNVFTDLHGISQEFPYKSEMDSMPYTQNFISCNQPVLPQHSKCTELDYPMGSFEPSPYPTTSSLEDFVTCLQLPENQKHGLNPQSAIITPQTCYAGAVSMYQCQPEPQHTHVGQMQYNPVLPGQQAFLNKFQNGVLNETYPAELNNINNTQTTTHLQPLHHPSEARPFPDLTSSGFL
UniProt Q9HBZ2: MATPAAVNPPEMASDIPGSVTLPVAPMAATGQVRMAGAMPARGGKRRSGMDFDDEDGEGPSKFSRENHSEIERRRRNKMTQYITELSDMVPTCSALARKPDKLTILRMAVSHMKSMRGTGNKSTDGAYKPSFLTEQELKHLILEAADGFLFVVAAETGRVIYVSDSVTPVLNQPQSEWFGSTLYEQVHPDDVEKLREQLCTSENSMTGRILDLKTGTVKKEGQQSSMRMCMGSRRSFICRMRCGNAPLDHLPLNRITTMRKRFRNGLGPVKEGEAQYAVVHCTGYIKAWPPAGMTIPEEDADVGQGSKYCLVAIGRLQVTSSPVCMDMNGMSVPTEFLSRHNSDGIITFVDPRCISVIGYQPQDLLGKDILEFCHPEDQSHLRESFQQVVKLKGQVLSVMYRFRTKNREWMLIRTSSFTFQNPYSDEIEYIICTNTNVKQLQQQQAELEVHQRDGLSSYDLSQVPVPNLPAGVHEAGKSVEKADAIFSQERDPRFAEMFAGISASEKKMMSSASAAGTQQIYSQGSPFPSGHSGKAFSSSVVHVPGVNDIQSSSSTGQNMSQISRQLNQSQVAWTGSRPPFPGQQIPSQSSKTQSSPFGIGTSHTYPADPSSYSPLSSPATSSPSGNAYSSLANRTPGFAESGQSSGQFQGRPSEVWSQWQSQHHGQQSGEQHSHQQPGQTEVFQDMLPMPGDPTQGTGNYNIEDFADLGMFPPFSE
UniProt Q13547: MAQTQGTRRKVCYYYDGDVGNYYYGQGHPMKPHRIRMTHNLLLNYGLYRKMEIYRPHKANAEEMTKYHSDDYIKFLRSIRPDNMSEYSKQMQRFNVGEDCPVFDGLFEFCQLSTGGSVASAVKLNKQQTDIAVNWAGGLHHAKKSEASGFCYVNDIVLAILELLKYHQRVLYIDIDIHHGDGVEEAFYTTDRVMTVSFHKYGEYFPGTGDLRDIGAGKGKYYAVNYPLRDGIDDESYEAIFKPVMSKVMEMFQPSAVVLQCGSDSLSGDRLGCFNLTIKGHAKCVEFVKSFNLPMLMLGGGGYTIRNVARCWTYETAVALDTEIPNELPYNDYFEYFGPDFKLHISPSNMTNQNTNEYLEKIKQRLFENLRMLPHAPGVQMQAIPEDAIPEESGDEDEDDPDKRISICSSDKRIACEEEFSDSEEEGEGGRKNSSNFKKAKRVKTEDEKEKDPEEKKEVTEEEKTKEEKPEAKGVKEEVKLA

Holding throughout (assay): co-IP; endogenous AhR, HIF1α or ARNT2 immunoprecipitated from 100 µg of hREC lysate with anti-AhR, anti-HIF1α or anti-ARNT2 antibodies (2 µg) and protein A and G agarose beads; washed five times with lysis buffer and once with PBS; Western blot; cells pretreated 1 h with simvastatin or calpeptin, then 3 h 3MC
Background: Immunoblotting shows a protein as a band on a membrane.

Assay [1] has as its target hypoxia-inducible factor 1α (human (endogenous in hRECs)) (UniProt Q16665).
The target of assay [2] is aryl-hydrocarbon receptor (human (endogenous in hRECs)) (UniProt P35869).
The target in assay [3] is ARNT2 (human (endogenous in hRECs)) (UniProt Q9HBZ2).

No constants are given. Whether binding was seen depends on the method and setting. Binding seen in cells or lysates may run through a third protein. Some results given as binding are weak or reduced against the parent protein; the word gives no strength.

For the substance ARNT2 (from UniProt Q9HBZ2 1-717), the binding entry in assay [1] and in assay [2] was “binds” each time. As to “histone deacetylase 1 (from UniProt Q13547 1-482) (enzyme)”, the binding result in assay [3] and in assay [2] was “binds” throughout. Turning to “hypoxia-inducible factor 1α (from UniProt Q16665 1-826)”, the binding entry in assay [2] is recorded as “binds”.
